Experimental data from paper PMC11574162.
These are yes or no findings as the source states them, for the method shown. Binding seen in cells or lysates may run through a third protein. Some entries that bind do so weakly or less than the wild type.

Target: T1, LIM homeodomain transcription factor Islet1 (ISL1) (human (endogenous in hLECs)) (UniProt P61371)
T1 sequence: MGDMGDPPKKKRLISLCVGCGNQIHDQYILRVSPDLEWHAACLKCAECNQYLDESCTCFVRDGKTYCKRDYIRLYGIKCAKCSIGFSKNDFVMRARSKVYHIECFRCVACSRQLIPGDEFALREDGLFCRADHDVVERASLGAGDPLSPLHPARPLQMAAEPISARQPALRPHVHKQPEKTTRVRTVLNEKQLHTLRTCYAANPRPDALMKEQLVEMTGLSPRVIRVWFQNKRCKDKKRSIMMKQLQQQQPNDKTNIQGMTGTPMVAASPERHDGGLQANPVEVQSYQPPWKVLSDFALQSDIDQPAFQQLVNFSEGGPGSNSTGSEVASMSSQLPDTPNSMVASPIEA
Experiment: co-IP; reciprocal; whole lysates of LECs incubated 12 h at 4 °C with anti-ISL1 or anti-CDK5 antibody, protein-A/G agarose beads 8 h at 4 °C, washed with PBS, immunoblot; cells also transfected with Adv-NC or Adv-Efnb2 under normoxia or hypoxia

Question: How did the binding turn out when CDK5 (from UniProt Q00535 1-292) was run?
Answer: binds
